# Measurements reported in the supplement of paper PMC5949888.
# Most values lie at the floor of the assay. Slopes are relative: functional sequences can read slightly below zero.
# Test system: Saccharomyces cerevisiae PS128 hsf1 delta, HSF1(1-493) fusion
# Assay: growth estimate (transactivation domain function in HSF1 fusion, heat-shock survival) (a.u. (slope of normalised read count over time)); higher = stronger growth at 37°C, i.e. more transactivation activity
# Details: library: random library
# Experimental: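 Random 60-nt DNA library encoding peptides of up to 20 aa, fused to the C-terminus of yeast HSF1 residues 1-493 (C-terminal TAD deleted) and expressed from the native HSF1 promoter on a CEN plasmid in hsf1-deleted S. cerevisiae PS128. Cells were selected at 37°C on -trp 5-FOA plates for 0, 2, 4, 6 and 8 days and amplicons were sequenced. Growth estimate is the slope of a robust linear fit of total-sum-normalised read counts (normalised to the first time point) over time, using at least 2 replicates. Sequences are classed functional (TAD activity) above a threshold of -0.13, set from stop-codon control sequences.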
row,Substance,growth estimate
1,GQYHYDTLGSRRGRWGIFWA,< -0.25
2,MGIGTSVDPIAKFLVIYTRG,< -0.25
3,WVIDALVECDEPTAYDREPP,< -0.25
4,SRTSVLRYGNPHCIVLHVRS,< -0.25
5,KLNPVEG,< -0.25
6,VTLVRLPFASHVNEPILTHI,< -0.25
7,VHGESRYHPTTRLEPES,< -0.25
8,ISGNLARGLTLLSTAPRVGP,0.0802
9,SLSLHRISYAAR,< -0.25
10,ARG,< -0.25
11,RGMLIRSQGCRIGRLVYALR,< -0.25
12,ANLSHSDLLPCLSFQNLASR,< -0.25
13,WFVERIPIGPSSVLRRGSAG,< -0.25
14,GFQSRALDLRP,< -0.25
15,RYSPSPQVRSSVKFLFPRCR,< -0.25
16,LRV,< -0.25
17,RILVP,< -0.25
18,TEAAPPHVVNVAAFKISGGF,< -0.25
19,SDTLVGNGSYSGLWASVTPL,< -0.25
20,YLCGLLVPWTARQERPAVWV,< -0.25
21,ITVKPFAA,-0.197
22,RGDEWRSKPLDIAGV,< -0.25
23,RKGSY,< -0.25
24,EGRVPPQPCSDP,< -0.25

row,Substance,growth estimate
1,IHGHHKKVCLINSVGIYSYR,< -0.25
2,KWAHLRILVTYELISHRF,< -0.25
3,SWIA,< -0.25
4,TLYKTVRGSPAP,-0.219
5,KGGRSQTSSE,< -0.25
6,IPNSGPSIRWSESKNSFSKR,< -0.25
7,KVHLRGYGGPRGY,< -0.25
8,GFHI,< -0.25
9,RMQYSGDTMREAPEDTARYI,< -0.25
10,KAAQFWGVRLWTIGPRLVTT,< -0.25
11,RGHRGGSIFHVYWSVCVDKS,< -0.25
12,PGGRLWTGQALNVSPRTA,< -0.25
13,IISGSASIQTGLSCSWAMMA,< -0.25
14,IVRYRSAECRWIAERRSDPR,< -0.25
15,DRGVRIGLKRPTYIPFWLAV,< -0.25
16,RNEASYCPIVNQTSPNST,< -0.25
17,YSVRLQLLEASEGYKTST,< -0.25
18,PYLCPREVESIGGRMCMLGV,< -0.25
19,LSIWRPAFEGQL,< -0.25
20,FGLIHGRKGPS,-0.245
21,LSGPGLSVIAKGKSWNPH,< -0.25
22,GLRVEA,-0.243
23,PLLVYTVV,< -0.25
24,VLRTPKARQSMHCGSYSAPE,< -0.25

row,Substance,growth estimate
1,DYRTS,< -0.25
2,QEEVTFVTVIIGEGYDSLRG,< -0.25
3,VGPKLRPGVRPGYGSSQMDR,< -0.25
4,RSLCSYHAL,< -0.25
5,RGFSVTSGVTVAFTAQRPLY,< -0.25
6,RMRRLERVCSWLGYKGNRMA,< -0.25
7,AEDSYSHTDGKVKPGTWGVV,< -0.25
8,LYETTLITFFGALVIGLHCV,< -0.25
9,PGDLLPRGVYWSFVLRIYTP,0.151
10,ELGLLSGSEHPSRVEFMG,< -0.25
11,KDSDVITRAM,< -0.25
12,LRRPRNVGALLRNLIPDLKV,< -0.25
13,HGTEYATY,< -0.25
14,QLDTRGGLALDTSAQ,< -0.25
15,HPLGNINL,< -0.25
16,YIHTRGSYMIINFRTSITYP,< -0.25
17,TQKETWFSAVQLFCRRGVSE,< -0.25
18,SARVVHSKLSRVQTETGNIT,< -0.25
19,PDSTN,< -0.25
20,SWGREGYLRRAVL,< -0.25
21,KAPLNERLWSTWCAASRVGR,< -0.25
22,WVTSLDHAWQLLRRAFAWLF,< -0.25
23,EKAQTQGRWLGAGRAPLQHI,< -0.25
24,GSRNVLQRA,< -0.25

row,Substance,growth estimate
1,LPLQAAGGSVG,< -0.25
2,NEAAVLRNFWGIPGYVLSPP,< -0.25
3,RKTWRCRRAWGSVLMSICLP,< -0.25
4,PDNILLTVWGIVSVCTLETG,< -0.25
5,ETYCL,< -0.25
6,ELAYLPGFLDRMLPSL,1.16
7,GWVKLMFRRLKVGDYNNQLN,-0.0001
8,TKTVRSTRGLAFH,< -0.25
9,RKCLV,< -0.25
10,LNWLWLGFIRQLLICAPSCR,< -0.25
11,CSKNAIHSAAVDVKIHL,< -0.25
12,SLVIVSYVTTKPDLDRTARA,< -0.25
13,FDPSNSTGPFGNLRPRCIGR,< -0.25
14,SGGTSPFLSLVCSFRAKCQP,< -0.25
15,GHVRDT,< -0.25
16,VFSRQEYVLVGLFTTHY,< -0.25
17,VHARVFHTDTQNGGMQFERI,< -0.25
18,TAADIGRGKSGPGPALHPQL,< -0.25
19,PGIIEEGGTVNLGQPNHSSG,< -0.25
20,FSIDRRMPLSEGQSNSFQST,< -0.25
21,FFIAGL,< -0.25
22,LRNTAYFSLG,< -0.25
23,LCQAPCNARSGKTRFCSHAL,< -0.25
24,GLQ,< -0.25

# At a glance, some entries already given:
row,Substance,growth estimate
23,PLLVYTVV,< -0.25
24,VLRTPKARQSMHCGSYSAPE,< -0.25
1,DYRTS,< -0.25
2,QEEVTFVTVIIGEGYDSLRG,< -0.25
3,VGPKLRPGVRPGYGSSQMDR,< -0.25
4,RSLCSYHAL,< -0.25
5,RGFSVTSGVTVAFTAQRPLY,< -0.25
6,RMRRLERVCSWLGYKGNRMA,< -0.25
7,AEDSYSHTDGKVKPGTWGVV,< -0.25
8,LYETTLITFFGALVIGLHCV,< -0.25
9,PGDLLPRGVYWSFVLRIYTP,0.151
10,ELGLLSGSEHPSRVEFMG,< -0.25
11,KDSDVITRAM,< -0.25
12,LRRPRNVGALLRNLIPDLKV,< -0.25
13,HGTEYATY,< -0.25
14,QLDTRGGLALDTSAQ,< -0.25
15,HPLGNINL,< -0.25
16,YIHTRGSYMIINFRTSITYP,< -0.25
17,TQKETWFSAVQLFCRRGVSE,< -0.25
18,SARVVHSKLSRVQTETGNIT,< -0.25
19,PDSTN,< -0.25
20,SWGREGYLRRAVL,< -0.25
21,KAPLNERLWSTWCAASRVGR,< -0.25
22,WVTSLDHAWQLLRRAFAWLF,< -0.25
23,EKAQTQGRWLGAGRAPLQHI,< -0.25
24,GSRNVLQRA,< -0.25
1,LPLQAAGGSVG,< -0.25
2,NEAAVLRNFWGIPGYVLSPP,< -0.25
3,RKTWRCRRAWGSVLMSICLP,< -0.25
4,PDNILLTVWGIVSVCTLETG,< -0.25
5,ETYCL,< -0.25
6,ELAYLPGFLDRMLPSL,1.16
7,GWVKLMFRRLKVGDYNNQLN,-0.0001
8,TKTVRSTRGLAFH,< -0.25
9,RKCLV,< -0.25
10,LNWLWLGFIRQLLICAPSCR,< -0.25
11,CSKNAIHSAAVDVKIHL,< -0.25
12,SLVIVSYVTTKPDLDRTARA,< -0.25
13,FDPSNSTGPFGNLRPRCIGR,< -0.25
14,SGGTSPFLSLVCSFRAKCQP,< -0.25
15,GHVRDT,< -0.25
16,VFSRQEYVLVGLFTTHY,< -0.25
17,VHARVFHTDTQNGGMQFERI,< -0.25
18,TAADIGRGKSGPGPALHPQL,< -0.25
19,PGIIEEGGTVNLGQPNHSSG,< -0.25
20,FSIDRRMPLSEGQSNSFQST,< -0.25
21,FFIAGL,< -0.25

# The list continues:

row,Substance,growth estimate
1,RMSTGRA,< -0.25
2,TKALMNRRMLI,< -0.25
3,NLSVEGGSGGIGSPQAP,< -0.25
4,LRYIEV,< -0.25
5,WIYPVRVLWRHPSGGELLSR,< -0.25
6,QEK,< -0.25
7,LMDVRFV,< -0.25
8,QTTVL,< -0.25
9,ASVARAIGDHF,< -0.25
10,RTVSVRGGRVGC,< -0.25
11,RQCVVKLRWIKQMLGPVHLR,< -0.25
12,ALPSTRGSVSSSLEFECRDW,< -0.25
13,LTVRKGSFDTRGCCMDTCLG,< -0.25
14,PIRHSYIDYSACLLVRPGKA,< -0.25
15,AVTFIVR,< -0.25
16,LYFRYLSRAITQRIYESSAE,< -0.25
17,FRIRAVRI,< -0.25
18,PYDDISPEIHHSH,< -0.25
19,GALSC,0.128
20,GYRGGDEGSPVHRGTLNECT,< -0.25
21,SSRFTMWLARGWV,< -0.25
22,LSKRSNVHSRWGGTPGDLIT,< -0.25
23,LYWEGQTQSLQQESHPL,-0.237
24,SRGLSYLLVAVER,< -0.25

row,Substance,growth estimate
1,SVAGNMGTKTSRFRL,< -0.25
2,SKYAARYDKPI,< -0.25
3,CYFAATRTSI,< -0.25
4,IIRVCIRG,< -0.25
5,HDGRVNWLVYSICSWLRV,-0.243
6,GTSLNLAFGTVPRAEGPAEK,< -0.25
7,PWSEIIWPGEMHRKFEPKPM,< -0.25
8,FSNRPLLCVAREESHVEDWR,< -0.25
9,IPCNEAGFTQGGLIERVSGY,< -0.25
10,APRICLSKKVLLGILEWSFS,< -0.25
11,RLDVAPRIGADPIVSVPNSW,< -0.25
12,VTSTGCKSGGQPISVVGLNI,< -0.25
13,HVSGPVHIDADPP,< -0.25
14,MFL,< -0.25
15,SVGSCRL,< -0.25
16,ILRW,< -0.25
17,WHLRMTVYAIVYHPALGEMI,< -0.25
18,HKSQRTF,< -0.25
19,WYK,< -0.25
20,GARSLDSAGEAQFRMD,< -0.25
21,GMTCLLYRNAGGLESASIRA,< -0.25
22,VGIGWSIGR,< -0.25
23,LRAAMFFLVAIQVR,< -0.25
24,SLRHTDLSIRLWQFLSSVDL,< -0.25

row,Substance,growth estimate
1,VMEDVICVSSFHRTSAQPGC,< -0.25
2,VVWGVARLGSLGIFQPDPP,< -0.25
3,LGLTNSRAHYNPCMSICHWA,< -0.25
4,PETDNVRWEHVQ,< -0.25
5,PCDSCLAKNGHGQTPRRLNK,-0.245
6,PQNQIVNVWLRWERGYFVGA,< -0.25
7,SGHPKAPGWAW,< -0.25
8,SANKRAMKEG,< -0.25
9,LSMAVCRIYRMKTRSQISQT,< -0.25
10,SDTENPKLFRLCMVMRDFNP,< -0.25
11,LAVLVNIRAGYVIGQG,< -0.25
12,QSYKAKLSVADFKLVRRSEC,< -0.25
13,ARPLVVRDQRRLALSSTTGS,< -0.25
14,LFGGVDVGRGGLICGTQCCT,< -0.25
15,VGHIHRTDDSVSTVSKLLWR,< -0.25
16,GTVGPGCVLSWYYHALHCSD,< -0.25
17,AAR,< -0.25
18,GWTLKWPLVARVRGRKYSSK,< -0.25
19,LPARLRPLSEGVEV,< -0.25
20,TGVRGYEPYDK,< -0.25
21,MQYWRLDN,< -0.25
22,IPVQHSVCTIFRRSQVAAGG,< -0.25
23,LVMRS,< -0.25
24,QWTTEPADVLW,0.595

row,Substance,growth estimate
1,KVPARPAP,< -0.25
2,LTFE,< -0.25
3,KATTGGILKKEDSRHVKTCH,0.0323
4,TTNVFNCNSPEFGAAERLVS,< -0.25
5,TGEEATDRICVCPSLTGMDF,< -0.25
6,VRRGSAIIGRSKVPLGKEVL,< -0.25
7,RMRCECCEREIESYGGRARS,< -0.25
8,LASVSPRAWYSLSSLVYQTE,-0.0864
9,RLDQQVSGNAQVPSRATYWV,< -0.25
10,RVMDGCVSVCAG,< -0.25
11,LLYVCPRVVRLSARLACRWP,< -0.25
12,AGHMRGFQVLRRTYGPTRQL,< -0.25
13,LDMLLPCSVSNFEKVVLRSN,< -0.25
14,HAASRSVVMLIGSWLDLYNT,< -0.25
15,TILGQILSRRTRCHGAIGVS,< -0.25
16,TPSTGHALVSASRCARGRDA,< -0.25
17,ESKYLGF,< -0.25
18,LKLDG,< -0.25
19,ASGAS,< -0.25
20,GDIQVWKSIPLVGGN,< -0.25
